Laboratory results as given in paper doi:10.1101/797811.
These are yes or no findings as the source states them, for the method shown. Binding seen in cells or lysates may run through a third protein. Some entries that bind do so weakly or less than the wild type.

Protein sequences, listed by entry. Tags and fused reporters are not part of them.
UniProt P02929: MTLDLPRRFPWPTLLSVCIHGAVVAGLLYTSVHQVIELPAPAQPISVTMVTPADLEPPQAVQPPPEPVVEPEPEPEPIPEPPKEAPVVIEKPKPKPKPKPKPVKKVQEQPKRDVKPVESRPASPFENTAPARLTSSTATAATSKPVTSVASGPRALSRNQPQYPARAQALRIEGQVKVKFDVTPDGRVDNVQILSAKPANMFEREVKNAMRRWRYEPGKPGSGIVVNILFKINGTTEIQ

B1: ExbD (54-58Ala) (protein, UniProt P0ABV2 1-141)
chain: MAMHLNENLDDNGEMHDINVTPFIDVMLVLLIIFMVAAPLATVDVKVNLPASTAAAAARPEKPVYLSVKADNSMFIGNDPVTDETMITALNALTEGKKDTTIFFRADKTVDYETLMKVMDTLHQAGYLKIGLVGEETAKAK
B2: ExbD (59-63Ala) (protein, UniProt P0ABV2 1-141)
chain: MAMHLNENLDDNGEMHDINVTPFIDVMLVLLIIFMVAAPLATVDVKVNLPASTSTPQPAAAAAVYLSVKADNSMFIGNDPVTDETMITALNALTEGKKDTTIFFRADKTVDYETLMKVMDTLHQAGYLKIGLVGEETAKAK
B3: ExbD (44-48Ala) (protein, UniProt P0ABV2 1-141)
chain: MAMHLNENLDDNGEMHDINVTPFIDVMLVLLIIFMVAAPLATVAAAAALPASTSTPQPRPEKPVYLSVKADNSMFIGNDPVTDETMITALNALTEGKKDTTIFFRADKTVDYETLMKVMDTLHQAGYLKIGLVGEETAKAK
B4: ExbD (49-53Ala) (protein, UniProt P0ABV2 1-141)
chain: MAMHLNENLDDNGEMHDINVTPFIDVMLVLLIIFMVAAPLATVDVKVNAAAAASTPQPRPEKPVYLSVKADNSMFIGNDPVTDETMITALNALTEGKKDTTIFFRADKTVDYETLMKVMDTLHQAGYLKIGLVGEETAKAK

The binders below were run against TonB (Escherichia coli K-12 (endogenous in RA1045, a W3110 derivative)) (UniProt P02929) (assay: cross-linking).
For B1, the binding was “binds”.
In the case of B2, the binding is reported as “binds”.
With B3 the binding was “no binding”.
In the case of B4, the binding is reported as “no binding”.
